Literature values, collected in patent US11376223B2, “Pharmaceutical compositions” (priority 2017, dated 2022).
Where a name gives a salt, the structure may show the parent alone.

Settings: pH<6

Q: For `CC(C)c1c(C(=O)Nc2ccccc2)c(-c2ccccc2)c(-c2ccc(F)cc2)n1CC[C@@H](O)C[C@@H](O)CC(=O)O` (relative stereo) [atorvastatin, [R—(R*,R*)]-2-(4-fluorophenyl)-β, δ-dihydroxy-5-(1-methylethyl)-3-phenyl-4-[(phenylamino)carbonyl]-1H-pyrrole-1-heptanoic acid, calcium salt (2:1) trihydrate], which “pH dependent chemical instability” value is on record?
A: degrades to an undesired byproduct, a lactone
